Here are results for three molecules from PMC8093946.

Sequences of proteins named here, by UniProt entry; tags and fusion partners are left off. Residues count along the entry.
UniProt Q01955, residues 1439-1666: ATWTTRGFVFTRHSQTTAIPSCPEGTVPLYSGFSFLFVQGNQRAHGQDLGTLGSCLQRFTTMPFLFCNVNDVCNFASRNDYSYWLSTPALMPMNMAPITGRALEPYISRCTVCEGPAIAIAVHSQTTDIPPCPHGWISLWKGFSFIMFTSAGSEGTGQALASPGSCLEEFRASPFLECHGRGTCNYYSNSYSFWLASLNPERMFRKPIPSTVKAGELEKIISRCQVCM
UniProt P29400, residues 1461-1685: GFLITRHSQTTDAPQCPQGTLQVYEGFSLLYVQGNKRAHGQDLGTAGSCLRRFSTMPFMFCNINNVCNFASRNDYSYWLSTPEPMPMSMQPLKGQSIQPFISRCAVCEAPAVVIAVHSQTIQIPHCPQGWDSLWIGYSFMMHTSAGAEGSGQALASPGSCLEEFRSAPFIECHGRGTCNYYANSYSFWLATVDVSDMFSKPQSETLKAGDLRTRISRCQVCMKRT

Results are given in words; binding and its absence hold for the method and conditions named. Some binding calls cover weakened binding; strength is not graded here.

Holding throughout (test): crystal structure; hanging-drop vapor diffusion; protein ~10 mg/ml in 5-mM Tris HCl, pH 7.5, 150-mM NaCl mixed 1:1 with 100-mM Tris HCl, pH 8.5, 56% PEG 200; 22 °C; space group P4_(1)2_(1)2; one single-chain NC1 polypeptide per asymmetric unit; both purified
Test [1] deals with T1, collagen IV α4 chain NC1 domain (as it stands in the single-chain α345 NC1 trimer) (human) (UniProt P53420).
T1 sequence: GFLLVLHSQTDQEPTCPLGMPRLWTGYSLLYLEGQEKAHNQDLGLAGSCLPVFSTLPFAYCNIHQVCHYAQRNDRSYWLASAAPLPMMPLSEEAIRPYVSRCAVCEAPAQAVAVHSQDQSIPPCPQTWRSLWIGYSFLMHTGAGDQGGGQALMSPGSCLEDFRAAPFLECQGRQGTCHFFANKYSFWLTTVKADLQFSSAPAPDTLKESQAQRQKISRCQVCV

Test [2] has as its target collagen IV α3 chain NC1 domain (as it stands in the single-chain α345 NC1 trimer) (human) (UniProt Q01955).
For test [3], the target named is collagen IV α5 chain NC1 domain (as it stands in the single-chain α345 NC1 trimer) (human) (UniProt P29400).

Consider “collagen IV α3 chain NC1 domain (as it stands in the single-chain α345 NC1 trimer) (from UniProt Q01955 1439-1666) (domain or fragment)”, for which the binding entry in test [1] and in test [2] was “binds” throughout.

Consider “collagen IV α5 chain NC1 domain (as it stands in the single-chain α345 NC1 trimer) (from UniProt P29400 1461-1685) (domain or fragment)”, for which the binding result in test [2] was “binds”.

B1: collagen IV α4 chain NC1 domain (as it stands in the single-chain α345 NC1 trimer) (domain or fragment, UniProt P53420 1465-1687)
chain: T1 sequence
On to B1, for which the binding entry in test [3] is recorded as “binds”.
